This note sets out measurements from the supplement of paper PMC12872613.

Structures can show the parent of a compound that is named as a salt. This is one part of the list. No stated cut-off is given here; in the data, active = 0.7 or more and inactive = the rest. Repeats are few or missing, and single values can be far off.

The subject of the test is MiaPaCa-2 CLSA-25. Description: cell death relative to DMSO vehicle (fraction); higher = more cytotoxic. The following applies: 5 µM; treatment time 48 h; medium cystine 25 µM.
Consider `O=C(O)CNC(=O)c1nc(Cl)c2ccccc2c1O`, for which the cell death was inactive: 0.212. Under `C/C1=C2N=C(/C=C3N=C(/C(C)=C4\[N-]C(C(CC(N)=O)C4(C)CCC(=O)NCC(C)OP(=O)([O-])OC4C(CO)OC(n5cnc6cc(C)c(C)cc65)C4O)C4(C)N=C1C(CCC(N)=O)C4(C)CC(N)=O)C(CCC(N)=O)C\3(C)C)C(CCC(N)=O)C/2(C)CC(N)=O.[CH3-].[Co+3]` (centres undefined) [Methylcobalamin] stands inactive: 0.0969; under `COc1ccc2c(c1)c(CC(=O)OCC(=O)O)c(C)n2C(=O)c1ccc(Cl)cc1` [Acemetacin], inactive: 0.111; under `OC[C@H]1O[C@@H](O[C@@H]2[C@@H](CO)OC(O)(CO)[C@H]2O)[C@H](O)[C@@H](O)[C@H]1O` (mixture of isomers) [Lactulose], inactive: 0.14. Turning to `COc1ccc2c(c1)C(=O)N(CCc1ccc(S(=O)(=O)NC(=O)NC3CCCCC3)cc1)C(=O)C2(C)C` [Gliquidone], the cell death was inactive: 0.0551. As for `Cc1nc2ccc(NC(=O)Nc3ccnc4cccnc34)cc2o1`, the cell death was inactive: 0.139. With `C#CCN[C@@H]1CCc2ccccc21` [Rasagiline], the cell death is inactive: 0.146.

With `COC(=O)CN(c1ccc(CN(c2ccc(OCc3ccc(C)cc3)c(C(=O)OC)c2)S(=O)(=O)Cc2ccccc2)cc1)S(C)(=O)=O`, the cell death is inactive: 0.147. For the compound `O=C(O)c1cc(O)c2c(c1)[C@H]([C@H]1c3cc(C(=O)O)cc(O)c3C(=O)c3c(O[C@@H]4O[C@H](CO)[C@@H](O)[C@H](O)[C@H]4O)cccc31)c1cccc(O[C@@H]3O[C@H](CO)[C@@H](O)[C@H](O)[C@H]3O)c1C2=O` [Sennoside A], the cell death was inactive: 0.0337. As for `NC(N)=O`, the cell death is inactive: 0.227. With `CCc1ccc(CCOc2ccc(CC3SC(=O)NC3=O)cc2)nc1` (centres undefined) [Pioglitazone], the cell death was inactive: 0.205.

For `CCC(=O)OCC(=O)[C@@]1(OC(=O)CC)[C@@H](C)C[C@H]2[C@@H]3CCC4=CC(=O)C=C[C@]4(C)[C@@]3(F)[C@@H](O)C[C@@]21C` [Betamethasone dipropionate], the cell death was inactive: 0.202. On to `CC(C)(C)NC(=O)[C@H]1CC[C@H]2[C@@H]3CC[C@H]4NC(=O)C=C[C@]4(C)[C@H]3CC[C@]12C` [Finasteride], for which the cell death was inactive: 0.132. As for `NCc1c[nH]c(=S)n1[C@H]1CCc2c(F)cc(F)cc2C1` [Nepicastat HCl], the figure is inactive: 0.181; as for `O=C1C(O)=C([C@H]2CC[C@H](c3ccc(Cl)cc3)CC2)C(=O)c2ccccc21` [Atovaquone], inactive: 0.63; as for `CN(C)c1cccc(-c2c3c(=O)n(-c4ccccc4Cl)[nH]c3cc(=O)n2C)c1`, inactive: -0.0329. Take `Cc1nc(C(=O)NCC(=O)O)c(O)c2ccc(Oc3ccccc3)cc12` [Roxadustat]: the cell death is inactive: 0.189. For the compound `COc1ccc(Cl)cc1C(=O)NCCc1ccc(S(=O)(=O)NC(=O)NC2CCCCC2)cc1` [Glyburide], the cell death was inactive: 0.0476. As to `NC(=O)N/N=C/c1ccc([N+](=O)[O-])o1` [Furacilin], the cell death is inactive: 0.364. For the compound `C/C(=C(\CCOP(=O)(O)O)SC(=O)c1ccccc1)N(C=O)Cc1cnc(C)nc1N` [Benfotiamine], the cell death is inactive: 0.118. Regarding `COc1ccc(C2(CNC(=O)c3ccc(NC(=O)c4ccco4)cc3)CCOCC2)cc1`, the cell death was inactive: 0.207. On to `O=C1c2c(O)cc(O)cc2OC(c2ccc(O)c(O)c2)C1O` (centres undefined) [Taxifolin], for which the cell death is inactive: 0.15. With `Cc1nc(Nc2cnn(C3CCNCC3)c2)nc2c1N(C)C(=O)c1cc3ccccc3cc1N2C`, the cell death is inactive: 0.338. Turning to `CCOC(=O)[C@H](CCc1ccccc1)N[C@H]1CCc2ccccc2N(CC(=O)O)C1=O` [Benazepril hydrochloride], the cell death is inactive: 0.377.

On to `O=C(COCC(=O)Nc1ccc(Cl)cc1C(=O)O)Nc1cccc(-c2ccoc2)c1`, for which the cell death was inactive: 0.00722. Regarding `Cn1c(=O)c2c(ncn2CC(O)CO)n(C)c1=O` (centres undefined) [Diprophylline], the cell death was inactive: 0.277. Take `COc1cc(C[C@H]2C(=O)OC[C@@H]2Cc2ccc(OC)c(OC)c2)ccc1O` [Arctigenin]: the cell death was inactive: 0.0391.

Turning to `CC(C)n1cnc2c(NCCc3ccc(O)cc3)nc(-c3csc4ccccc34)nc21` [StemRegenin 1], the cell death is active: 0.75. In the case of `CCOC(=O)c1ccc(NC2CCCCC2)c(N)c1` [Ferrostatin-1], the cell death is inactive: 0.246.

Take `COc1ccc2[nH]c([S+]([O-])Cc3ncc(C)c(OC)c3C)nc2n1` (centres undefined) [Tenatoprazole]: the cell death was inactive: 0.164.

For the compound `COc1cccc(-c2ccc(NC(=O)C3=C(C(=O)O)CCC3)c(F)c2)c1` [Vidofludimus], the cell death is inactive: 0.539.

As to `CS(=O)(=O)c1ccc(-c2nnc(/C=C/c3nnc(-c4ccc(C#N)cc4)o3)n2-c2ccccc2Cl)nc1`, the cell death was inactive: 0.172. As for `CC(C)=CCC[C@](C)(O[C@@H]1O[C@H](CO[C@@H]2O[C@H](CO)[C@@H](O)[C@H](O)[C@H]2O)[C@@H](O)[C@H](O)[C@H]1O)[C@H]1CC[C@]2(C)[C@@H]1[C@H](O)C[C@@H]1[C@@]3(C)CC[C@H](O[C@@H]4O[C@H](CO)[C@@H](O)[C@H](O)[C@H]4O)C(C)(C)[C@@H]3CC[C@]12C` [Gypenoside XVII], the figure is active: 0.826. Take `O=C(O)c1ccc[nH]1` [Pyrrole-2-carboxylic acid]: the cell death is inactive: 0.277.

Turning to `O=c1cc(-c2ccc(O)cc2)oc2cc(O)cc(O)c12` [Apigenin], the cell death is inactive: 0.326. As to `CC(C)(Oc1ccc(CCNC(=O)c2ccc(Cl)cc2)cc1)C(=O)O` [Bezafibrate], the cell death is inactive: 0.0163.

`O=C(O)c1ccccn1` [2-Picolinic acid]: the cell death was inactive: 0.326. On to `O=C(Nc1ccccc1)c1cc([N+](=O)[O-])ccc1Cl`, for which the cell death is inactive: -0.00482. Regarding `CC(=O)OCC(=O)[C@@]1(O)CC[C@H]2[C@@H]3CCC4=CC(=O)CC[C@]4(C)[C@H]3[C@@H](O)C[C@@]21C` [Hydrocortisone acetate], the cell death was inactive: -0.00642.
